# Test results published in patent publication US10125167B2, “Compositions and methods for treating MRSA infections and for sensitizing MRSA to beta-lactam antibiotics” (Arizona Board of Regents on behalf of Arizona State …, priority 2015, dated 2018).
# Test system: E. coli O157:H7 BEI: BAA-1883
# Experiment: MIC against a panel of Gram-positive and Gram-negative bacteria
# Assay type: cell-based
# Details: Escherichia coli, BAA1883
structure (smiles),measurement,value
"O=C(O)c1cn(C2CC2)c2cc(N3CCNCC3)c(F)cc2c1=O [Cipro, Ciprofloxacin]",MIC,< 1 µg/mL
